Reference: patent US6458754B1, “Encapsulated perfume particles and detergent compositions containing said particles” (The Procter & Gamble Company, priority 1998, dated 2002)

assay: Odor detection threshold (ODT) by gas chromatograph with sniff port and panelists; set-up: species or system human; settings: odor detection threshold of HIA perfume ingredient; tested at 50 ppb at the sniff port

For COc1ccc(C=O)cc1 [Anisic Aldehyde], which ODT is on record?
Its ODT is <50 PPB.

With CC/C=C\CCOC(=O)c1ccccc1O [Cis-3-Hexenyl Salycilate] as the compound, how does the ODT read?
Its ODT is <50 PPB.

For CC1=CC(C)C(C=O)CC1 (centres unmarked) [Cyclal C], which ODT is on record?
The ODT was <50 PPB.

For C/C=C/C(=O)C1=C(C)C=CCC1(C)C [Damascenone], which ODT is on record?
Its ODT is <50 PPB.

Which ODT does the source give for C/C=C/C(=O)C1C(C)=CCCC1(C)C (stereo not drawn) [Damascone Alpha] here?
Its ODT is <50 PPB.

With CCOC(=O)C(C)CC (centres unmarked) [Ethyl-2-methyl Butyrate] as the compound, how does the ODT read?
Its ODT is <50 PPB.

With C=CCc1ccc(O)c(OC)c1 [Eugenol] as the compound, how does the ODT read?
Its ODT is <50 PPB.

Which ODT does the source give for CC(=O)OC1CC2CC1C1CC=CC21 (centres unmarked) [Flor Acetate] here?
The ODT was <50 PPB.

For CCC(=O)OC1CC2CC1C1CC=CC21 (centres unmarked) [Frutene], which ODT is on record?
Its ODT is <50 PPB.

Which ODT does the source give for CC(=O)/C=C/C1=C(C)CCCC1(C)C [Ionone Beta] here?
Its ODT is <50 PPB.

Which ODT does the source give for CC(C=O)Cc1ccc(C(C)(C)C)cc1 (centres unmarked) [Lilial] here?
The ODT was <50 PPB.

For C=CC(C)(O)CCC=C(C)C (centres unmarked) [Linalool], which ODT is on record?
Its ODT is <50 PPB.

With CCCCCCC#CC(=O)OC [Methyl Octine Carbonate] as the compound, how does the ODT read?
The ODT was <50 PPB.

With CC(C)=CC1CC(C)CCO1 (centres unmarked) [Rose Oxide] as the compound, how does the ODT read?
The ODT was <50 PPB.
